Among the data in the supplement of paper PMC10981050 are cell viability values, retold here.

Several values for one entry are separate records, joined by “and”; a condition that tells them apart may be missing. Equal entries are not always repeated. This list holds what a sample rich in strong results left over.

What all share (assay): cell viability relative to vehicle control; higher = less cytotoxic
Common to all, as to conditions: 10 µM

In one assay the test system is K562. In short, it runs like this:
(§1)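 After removal of identity-inconsistent compounds, the Selleck bioactive, kinase and epigenetic probe libraries were screened on CRISPR-edited mutant clones and isogenic wild-type clones of four leukaemia lines. Plates were 384-well, each well holding 2000 cells in 50 µL medium and receiving a single 10 µM acoustically dispensed dose. CellTiter-Glo luminescence was read 48 h later, after the supernatant was taken off. Genedata Screener was used to express viability as percent of the on-plate vehicle control.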

The test system of a further assay is MARIMO. In short, it runs like this:
as §1

Another assay deals with MOLM14. The procedure, abridged:
as §1

The subject of the next assay is OCI-AML2. The procedure, abridged:
as §1

What is called cell viability is the share of living cells, or the viability signal relative to a control. Take `O=C(O)C1=C[C@@H](O)[C@@H](O)[C@H](O)C1` [Shikimic acid (Shikimate)]: the cell viability was 99.7% and 86.6% in the assay with K562 (SRSF2 genotype: SRSF2 P95H/wt); 84.1% with K562 (SRSF2 genotype: SRSF2 wt/wt); 84.1% in the assay with MARIMO (SRSF2 genotype: SRSF2 P95H/wt); 93.3% in the assay with MARIMO (SRSF2 genotype: SRSF2 wt/wt); 86.2% with MOLM14 (SRSF2 genotype: SRSF2 P95H/wt); 88.4% in the assay with MOLM14 (SRSF2 genotype: SRSF2 wt/wt). In addition, the figures for the cell viability in the assay on OCI-AML2 (SRSF2 genotype: P95H/wt) and with OCI-AML2 (SRSF2 genotype: wt/wt) were 98.2% and 85.5%, respectively.
